Source: PMC2976706
Substitutions are numbered along the chain they refer to. No constants are given. Whether binding was seen depends on the method and setting. In cells and extracts the contact can be indirect. Some binding calls cover weakened binding; strength is not graded here. For part of these data: Tags and fused reporters may be left off the sequences shown. One block for each binder: values may come before it.

By UniProt entry, the sequences of proteins in these tests, tags left out.
UniProt Q01094: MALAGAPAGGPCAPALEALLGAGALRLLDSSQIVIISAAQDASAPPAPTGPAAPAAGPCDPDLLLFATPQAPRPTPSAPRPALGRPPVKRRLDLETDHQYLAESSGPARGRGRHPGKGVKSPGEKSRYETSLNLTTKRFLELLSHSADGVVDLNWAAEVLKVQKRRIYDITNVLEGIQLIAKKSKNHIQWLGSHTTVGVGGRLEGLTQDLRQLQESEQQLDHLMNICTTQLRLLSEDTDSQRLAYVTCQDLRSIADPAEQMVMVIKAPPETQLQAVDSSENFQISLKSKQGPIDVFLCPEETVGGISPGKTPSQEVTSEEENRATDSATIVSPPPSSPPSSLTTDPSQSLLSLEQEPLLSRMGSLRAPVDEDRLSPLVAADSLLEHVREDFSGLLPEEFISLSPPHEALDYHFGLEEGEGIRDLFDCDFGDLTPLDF

Key:
GST-Rb (379-928) (human) [1] = biological target: T1, GST-Rb (379-928) (human) (UniProt P06400); assay: pull-down; competitive: GST-Rb (379-928) on beads with a fixed amount of in vitro translated Orc1 and increasing amounts of in vitro translated E2F1 (luciferase as control); only the target purified
T1 sequence: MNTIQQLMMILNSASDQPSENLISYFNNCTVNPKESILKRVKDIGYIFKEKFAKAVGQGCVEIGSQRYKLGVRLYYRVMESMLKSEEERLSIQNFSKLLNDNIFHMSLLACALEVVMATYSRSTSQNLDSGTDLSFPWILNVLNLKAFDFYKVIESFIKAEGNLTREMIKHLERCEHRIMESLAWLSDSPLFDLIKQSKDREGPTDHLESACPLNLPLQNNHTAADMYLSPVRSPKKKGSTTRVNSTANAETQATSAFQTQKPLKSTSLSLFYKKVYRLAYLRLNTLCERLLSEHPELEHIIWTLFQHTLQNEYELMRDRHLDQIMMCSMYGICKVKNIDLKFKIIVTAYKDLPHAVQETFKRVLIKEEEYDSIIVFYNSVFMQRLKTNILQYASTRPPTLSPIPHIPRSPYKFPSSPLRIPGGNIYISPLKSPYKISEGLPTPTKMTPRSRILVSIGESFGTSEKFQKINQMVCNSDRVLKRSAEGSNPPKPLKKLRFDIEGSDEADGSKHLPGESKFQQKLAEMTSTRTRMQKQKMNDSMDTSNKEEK

[2] = biological target: T2, GST fused to the N-terminus (aa. 1-400) of Rb (human) (UniProt P06400); assay: pull-down; 1 ug GST fusion protein on glutathione-agarose beads, pretreated with DNase I and RNase A, incubated with in vitro translated [35S]-protein in 0.1 mg/ml ethidium bromide; SDS-PAGE, phosphoimaging; only the target purified
T2 sequence: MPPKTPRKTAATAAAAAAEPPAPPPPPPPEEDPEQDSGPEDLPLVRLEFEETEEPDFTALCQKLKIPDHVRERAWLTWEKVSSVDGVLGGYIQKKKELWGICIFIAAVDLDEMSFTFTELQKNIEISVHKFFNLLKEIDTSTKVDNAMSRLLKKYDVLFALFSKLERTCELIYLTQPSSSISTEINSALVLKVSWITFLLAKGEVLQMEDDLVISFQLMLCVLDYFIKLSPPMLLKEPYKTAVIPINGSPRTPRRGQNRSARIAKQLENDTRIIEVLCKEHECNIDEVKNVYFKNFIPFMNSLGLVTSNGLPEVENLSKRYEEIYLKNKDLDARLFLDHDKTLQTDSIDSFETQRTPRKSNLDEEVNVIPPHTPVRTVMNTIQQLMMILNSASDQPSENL

GST-E2F1 (human) = GST-E2F1 (human) (UniProt Q01094); assay: as above
GST-Rb (379-928) (human) [3] = biological target: T1, GST-Rb (379-928) (human); assay: as above
[4] = biological target: T3, GST-Rb AE Cys706Phe (human) (UniProt P06400); assay: as above
T3 sequence: T1 sequence with C328F

[5] = biological target: E2F1 fused to EGFP or BFP (FRET) (human) (UniProt Q01094); assay: FRET or BRET; HeLa cells transiently transfected with EGFP and BFP fusion pairs; ratio of EGFP emission at 520 nm after excitation at 350 nm to that after 480 nm, at least 10 cells a pair
[6] = biological target: T4, Rb fused to BFP or EGFP (FRET) (human) (UniProt P06400); assay: as above
T4 sequence: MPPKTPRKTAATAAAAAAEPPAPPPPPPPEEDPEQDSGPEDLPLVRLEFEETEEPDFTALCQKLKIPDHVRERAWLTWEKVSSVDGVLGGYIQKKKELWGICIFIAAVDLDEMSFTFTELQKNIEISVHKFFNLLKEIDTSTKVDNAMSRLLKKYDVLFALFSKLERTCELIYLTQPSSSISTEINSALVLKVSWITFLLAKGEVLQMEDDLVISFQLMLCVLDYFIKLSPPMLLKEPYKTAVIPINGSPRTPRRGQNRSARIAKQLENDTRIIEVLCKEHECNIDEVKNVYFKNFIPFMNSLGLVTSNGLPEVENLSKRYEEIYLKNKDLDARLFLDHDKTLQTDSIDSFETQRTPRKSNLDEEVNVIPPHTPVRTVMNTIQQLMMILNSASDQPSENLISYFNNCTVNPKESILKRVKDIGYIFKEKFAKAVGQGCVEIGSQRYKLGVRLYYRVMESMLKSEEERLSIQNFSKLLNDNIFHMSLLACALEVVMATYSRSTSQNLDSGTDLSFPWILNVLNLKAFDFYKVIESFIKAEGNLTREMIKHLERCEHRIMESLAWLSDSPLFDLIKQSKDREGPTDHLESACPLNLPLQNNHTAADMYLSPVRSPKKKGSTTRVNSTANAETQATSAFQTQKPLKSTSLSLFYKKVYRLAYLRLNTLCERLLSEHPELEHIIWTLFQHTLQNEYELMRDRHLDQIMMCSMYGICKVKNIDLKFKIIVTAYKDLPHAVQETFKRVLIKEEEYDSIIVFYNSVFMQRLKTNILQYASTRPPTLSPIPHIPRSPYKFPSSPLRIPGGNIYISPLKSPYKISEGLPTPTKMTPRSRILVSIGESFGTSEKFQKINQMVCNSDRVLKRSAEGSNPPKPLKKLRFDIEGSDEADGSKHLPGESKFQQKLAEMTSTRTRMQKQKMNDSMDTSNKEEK

[7] = biological target: endogenous E2F1 (HeLa) (human (endogenous in HeLa)) (UniProt Q01094); assay: co-IP; endogenous proteins, lysates of asynchronous HeLa cells in HNNG buffer (15 mM Hepes pH 7.5, 250 mM NaCl, 1% NP-40, 5% glycerol), antibody overnight at 4 C, protein A/G beads, DNase I treated; western blot
[8] = biological target: T5, endogenous Rb (HeLa) (human (endogenous in HeLa)) (UniProt P06400); assay: as above
T5 sequence: T4 sequence

binding (GST-Rb (379-928) (human) [1]): binds
binding [2]: no binding
binding (GST-E2F1 (human)): no binding
binding (GST-Rb (379-928) (human) [3]): binds
B1: in vitro translated [35S]-labelled human Orc1 (protein, UniProt Q13415 1-861)
chain: MAHYPTRLKTRKTYSWVGRPLLDRKLHYQTYREMCVKTEGCSTEIHIQIGQFVLIEGDDDENPYVAKLLELFEDDSDPPPKKRARVQWFVRFCEVPACKRHLLGRKPGAQEIFWYDYPACDSNINAETIIGLVRVIPLAPKDVVPTNLKNEKTLFVKLSWNEKKFRPLSSELFAELNKPQESAAKCQKPVRAKSKSAESPSWTPAEHVAKRIESRHSASKSRQTPTHPLTPRARKRLELGNLGNPQMSQQTSCASLDSPGRIKRKVAFSEITSPSKRSQPDKLQTLSPALKAPEKTRETGLSYTEDDKKASPEHRIILRTRIAASKTIDIREERTLTPISGGQRSSVVPSVILKPENIKKRDAKEAKAQNEATSTPHRIRRKSSVLTMNRIRQQLRFLGNSKSDQEEKEILPAAEISDSSSDEEEASTPPLPRRAPRTVSRNLRSSLKSSLHTLTKVPKKSLKPRTPRCAAPQIRSRSLAAQEPASVLEEARLRLHVSAVPESLPCREQEFQDIYNFVESKLLDHTGGCMYISGVPGTGKTATVHEVIRCLQQAAQANDVPPFQYIEVNGMKLTEPHQVYVQILQKLTGQKATANHAAELLAKQFCTRGSPQETTVLLVDELDLLWTHKQDIMYNLFDWPTHKEARLVVLAIANTMDLPERIMMNRVSSRLGLTRMCFQPYTYSQLQQILRSRLKHLKAFEDDAIQLVARKVAALSGDARRCLDICRRATEICEFSQQKPDSPGLVTIAHSMEAVDEMFSSSYITAIKNSSVLEQSFLRAILAEFRRSGLEEATFQQIYSQHVALCRMEGLPYPTMSETMAVCSHLGSCRLLLVEPSRNDLLLRVRLNVSQDDVLYALKDE
modifications: [35S]-labelled
binding [4]: binds

binding [5]: no binding
binding [6]: binds
B2: Orc1 fused to EGFP or BFP (FRET) (protein, UniProt Q13415 1-861)
chain: B1 chain

binding [7]: no binding
binding [8]: binds
B3: endogenous Orc1 (HeLa) (protein, UniProt Q13415 1-861)
chain: B1 chain
